Reference: ChEMBL document CHEMBL1144897, “A potent, selective inhibitor of matrix metalloproteinase-3 for the topical treatment of chronic dermal ulcers” (J Med Chem, 2003)

The chains behind the UniProt entries cited, without tags or fusion partners. Where a name states a change or a piece, a line headed by the entry shows the natural chain unless it says otherwise.
UniProt P08253: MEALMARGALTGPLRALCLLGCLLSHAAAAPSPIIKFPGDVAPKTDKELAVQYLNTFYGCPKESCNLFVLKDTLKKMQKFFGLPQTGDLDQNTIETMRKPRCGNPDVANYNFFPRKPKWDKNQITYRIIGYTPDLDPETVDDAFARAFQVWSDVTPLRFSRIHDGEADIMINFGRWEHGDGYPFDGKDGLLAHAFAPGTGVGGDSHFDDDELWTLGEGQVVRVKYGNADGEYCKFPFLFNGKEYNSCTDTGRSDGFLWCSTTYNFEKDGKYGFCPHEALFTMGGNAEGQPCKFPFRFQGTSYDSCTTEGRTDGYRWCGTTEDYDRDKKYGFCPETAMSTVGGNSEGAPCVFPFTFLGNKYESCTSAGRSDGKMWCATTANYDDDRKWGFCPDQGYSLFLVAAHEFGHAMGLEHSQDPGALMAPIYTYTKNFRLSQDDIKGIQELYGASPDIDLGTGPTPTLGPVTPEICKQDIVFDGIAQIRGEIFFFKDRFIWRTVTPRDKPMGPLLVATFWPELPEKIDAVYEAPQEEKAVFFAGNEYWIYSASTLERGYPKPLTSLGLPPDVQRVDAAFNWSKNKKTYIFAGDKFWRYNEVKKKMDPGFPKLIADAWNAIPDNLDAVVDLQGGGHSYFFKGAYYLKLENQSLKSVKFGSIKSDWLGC

Target: 72 kDa type IV collagenase (Homo sapiens, UniProt P08253)

CNC(=O)[C@H](Cc1ccc(OC)cc1)NC(=O)[C@@H](CC(=O)NO)CC(C)C showed an IC50 of 6 nM.
